Reference: paper doi:10.1101/2023.02.03.526966
Results are given in words; binding and its absence hold for the method and conditions named. In cells and extracts the contact can be indirect. Some entries that bind do so weakly or less than the wild type. Where a sequence is shown, tags or fusion partners need not be part of it.

Legend:
[1] = target: T1, HA-eLAR-Myc (extracellular domain of human LAR fused to the PDGF receptor transmembrane domain) (human) (UniProt P10586); assay: co-IP
T1 sequence: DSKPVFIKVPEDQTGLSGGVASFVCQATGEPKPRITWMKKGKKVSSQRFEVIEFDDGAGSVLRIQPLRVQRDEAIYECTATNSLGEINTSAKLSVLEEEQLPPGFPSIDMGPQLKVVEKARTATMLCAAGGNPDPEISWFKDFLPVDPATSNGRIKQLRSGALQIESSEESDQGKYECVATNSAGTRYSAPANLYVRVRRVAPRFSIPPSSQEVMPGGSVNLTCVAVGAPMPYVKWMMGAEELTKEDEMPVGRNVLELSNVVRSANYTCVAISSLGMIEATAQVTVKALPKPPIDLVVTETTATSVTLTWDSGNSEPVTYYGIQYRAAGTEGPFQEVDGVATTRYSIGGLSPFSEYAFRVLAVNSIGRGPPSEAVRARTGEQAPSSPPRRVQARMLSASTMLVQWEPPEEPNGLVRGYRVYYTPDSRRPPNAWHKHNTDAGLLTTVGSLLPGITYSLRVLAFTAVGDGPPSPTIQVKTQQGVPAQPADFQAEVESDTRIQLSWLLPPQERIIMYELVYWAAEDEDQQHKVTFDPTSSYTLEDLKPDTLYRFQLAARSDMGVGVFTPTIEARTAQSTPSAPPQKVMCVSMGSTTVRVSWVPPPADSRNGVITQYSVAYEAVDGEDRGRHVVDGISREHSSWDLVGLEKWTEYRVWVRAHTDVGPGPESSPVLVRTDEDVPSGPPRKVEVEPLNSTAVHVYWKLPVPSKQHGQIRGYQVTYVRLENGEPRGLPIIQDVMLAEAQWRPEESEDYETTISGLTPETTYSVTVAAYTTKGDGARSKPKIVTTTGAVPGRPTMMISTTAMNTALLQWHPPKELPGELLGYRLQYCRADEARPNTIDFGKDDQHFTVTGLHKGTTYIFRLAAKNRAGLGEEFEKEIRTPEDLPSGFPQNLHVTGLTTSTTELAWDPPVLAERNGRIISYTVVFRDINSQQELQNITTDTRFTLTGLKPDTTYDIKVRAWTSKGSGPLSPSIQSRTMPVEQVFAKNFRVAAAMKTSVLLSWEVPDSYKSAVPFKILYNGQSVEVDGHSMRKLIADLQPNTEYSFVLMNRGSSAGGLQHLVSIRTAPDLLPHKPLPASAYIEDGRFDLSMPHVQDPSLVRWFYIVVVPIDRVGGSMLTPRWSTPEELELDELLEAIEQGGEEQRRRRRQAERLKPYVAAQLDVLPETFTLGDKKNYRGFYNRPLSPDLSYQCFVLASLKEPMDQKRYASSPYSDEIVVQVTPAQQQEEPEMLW

[2] = target: T2, HA-ePTPRδ-Myc (extracellular domain of human PTPRδ fused to the PDGF receptor transmembrane domain) (human) (UniProt P23468); assay: co-IP
T2 sequence: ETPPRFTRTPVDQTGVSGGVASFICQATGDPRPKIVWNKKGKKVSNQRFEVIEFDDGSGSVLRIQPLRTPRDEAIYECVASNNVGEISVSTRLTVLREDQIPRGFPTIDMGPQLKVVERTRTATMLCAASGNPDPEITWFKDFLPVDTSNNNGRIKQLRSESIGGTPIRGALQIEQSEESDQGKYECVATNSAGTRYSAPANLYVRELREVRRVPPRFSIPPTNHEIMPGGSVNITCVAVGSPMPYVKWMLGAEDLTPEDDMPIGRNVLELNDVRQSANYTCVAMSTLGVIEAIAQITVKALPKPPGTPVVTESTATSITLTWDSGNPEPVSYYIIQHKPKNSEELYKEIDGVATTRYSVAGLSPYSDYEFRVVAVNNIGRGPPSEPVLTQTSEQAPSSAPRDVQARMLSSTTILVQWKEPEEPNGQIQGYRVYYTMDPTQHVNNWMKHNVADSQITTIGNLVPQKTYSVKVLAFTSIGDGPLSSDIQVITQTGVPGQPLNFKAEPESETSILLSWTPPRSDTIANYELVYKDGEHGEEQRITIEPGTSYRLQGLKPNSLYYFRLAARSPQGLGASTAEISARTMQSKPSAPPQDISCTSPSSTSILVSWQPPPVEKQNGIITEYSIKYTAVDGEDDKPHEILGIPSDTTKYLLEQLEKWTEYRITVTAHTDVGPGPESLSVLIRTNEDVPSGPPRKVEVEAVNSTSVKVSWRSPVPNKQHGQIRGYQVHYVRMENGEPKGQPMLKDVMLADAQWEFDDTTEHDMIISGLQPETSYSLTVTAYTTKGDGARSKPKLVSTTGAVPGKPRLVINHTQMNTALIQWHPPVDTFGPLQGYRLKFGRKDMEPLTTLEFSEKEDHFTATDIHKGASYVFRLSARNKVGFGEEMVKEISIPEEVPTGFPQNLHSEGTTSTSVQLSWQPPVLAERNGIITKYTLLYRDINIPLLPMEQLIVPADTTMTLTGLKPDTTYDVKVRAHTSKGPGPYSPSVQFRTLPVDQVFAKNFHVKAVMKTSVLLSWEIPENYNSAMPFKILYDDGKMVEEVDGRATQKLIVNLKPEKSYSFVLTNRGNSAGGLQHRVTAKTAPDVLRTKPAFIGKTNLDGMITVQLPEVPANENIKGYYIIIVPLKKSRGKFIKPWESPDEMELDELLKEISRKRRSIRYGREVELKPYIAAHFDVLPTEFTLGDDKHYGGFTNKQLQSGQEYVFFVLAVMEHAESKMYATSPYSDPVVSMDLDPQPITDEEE

B1: mouse nidogen-1 (protein, UniProt P10493 29-1245)
chain: LNRQELFPFGPGQGDLELEAGDDVVSPSLELIGELSFYDRTDITSVYVTTNGIIAMSEPPATEYHPGTFPPSFGSVAPFLADLDTTDGLGNVYYREDLSPFIIQMAAEYVQRGFPEVSFQPTSVVVVTWESVAPYGGPSSSPAEEGKRNTFQAVLASSNSSSYAIFLYPEDGLQFFTTFSKKDESQVPAVVGFSKGLVGFLWKSNGAYNIFANDRESIENLAKSSNAGHQGVWVFEIGSPATAKGVVSADVNLDLDDDGADYEDEDYDLVTSHLGLEDVATPSPSHSPRRGYPDPHNVPRILSPGYEATERPRGVPTERTRSFQLPAERFPQHHPQVIDVDEVEETGVVFSYNTGSQQTCANNRHQCSVHAECRDYATGFCCRCVANYTGNGRQCVAEGSPQRVNGKVKGRIFVGSSQVPVVFENTDLHSYVVMNHGRSYTAISTIPETVGYSLLPLAPIGGIIGWMFAVEQDGFKNGFSITGGEFTRQAEVTFLGHPGKLVLKQQFSGIDEHGHLTISTELEGRVPQIPYGASVHIEPYTELYHYSSSVITSSSTREYTVMEPDQDGAAPSHTHIYQWRQTITFQECAHDDARPALPSTQQLSVDSVFVLYNKEERILRYALSNSIGPVRDGSPDALQNPCYIGTHGCDSNAACRPGPGTQFTCECSIGFRGDGQTCYDIDECSEQPSRCGNHAVCNNLPGTFRCECVEGYHFSDRGTCVAAEDQRPINYCETGLHNCDIPQRAQCIYMGGSSYTCSCLPGFSGDGRACRDVDECQHSRCHPDAFCYNTPGSFTCQCKPGYQGDGFRCMPGEVSKTRCQLEREHILGAAGGADAQRPTLQGMFVPQCDEYGHYVPTQCHHSTGYCWCVDRDGRELEGSRTPPGMRPPCLSTVAPPIHQGPVVPTAVIPLPPGTHLLFAQTGKIERLPLERNTMKKTEAKAFLHIPAKVIIGLAFDCVDKVVYWTDISEPSIGRASLHGGEPTTIIRQDLGSPEGIALDHLGRTIFWTDSQLDRIEVAKMDGTQRRVLFDTGLVNPRGIVTDPVRGNLYWTDWNRDNPKIETSHMDGTNRRILAQDNLGLPNGLTFDAFSSQLCWVDAGTHRAECLNPAQPGRRKVLEGLQYPFAVTSYGKNLYYTDWKTNSVIAMDLAISKEMDTFHPHKQTRLYGITIALSQCPQGHNYCSVNNGGCTHLCLPTPGSRTCRCPDNTLGVDCIERK
In the case of B1, the binding [1] is reported as “binds” and the binding [2] is reported as “binds”.

B2: mouse nidogen-2 (protein, UniProt O88322 31-1403)
chain: LRPDELFPYGESWGDQLLPEGDDESSAAVKLAIPLRFYDAQFSSLYVGTNGIISTQDFPRETQYVDDDFPTDFPAIAPFLADIDTSHSRGRILYREDTSGAVLSLAARYVRTGFPLSGSSFTPTHAFLATWEHVGAYEEVSRGAAPSGELNTFQAVLASDESDTYALFLYPANGLQFFGTRPKESYNVQLQLPARVGFCRGEADDLKREALYFSLTNTEQSVKNLYQLSNLGIPGVWAFHIGSRFALDNVRPATVGGDPSTARSSALEHPFSHAAALESYTEDSFHYYDENEEDVEYPPVEPGEAPEGHSRIDVSFNSKADPGLVDVGTSSPGSDRASPWPYPAPGNWPSYRETESASLDPQTKQGRPVGEGEVLDFRDPAELLDQMGTRAPAPPEADAALLTPVNEDLGGRNTQSYPEAGPVPSEPDVPVPPLEGEVLPHYPESGHVPPLRGGKYVIGLEDHVGSNDQVFTYNGANLETCEHSHGRCSQHAFCTDYTTGFCCHCQSRFYGNGKHCLPEGAPHRVNGKVSGRLRVGHIPVHFTDVDLHAYIVGNDGRAYTAISHVPQPAAQALLPVLPIGGLFGWLFALEKPGSENGFSLTGATFVHDVEVTFHPGEERVRITQTAEGLDPENYLSIKTNIEGQVPFIPANFTAHITPYKEFYHYRDSVVTSSSSRSFSLTSGSINQTWSYHIDQNITYQACRHAPRHLAIPATQQLTVDRAFALYSEDEGVLRFAVTNQIGPVEVDSAPVGVNPCYDGSHTCDTTARCHPGTGVDYTCECTPGFQGDGRSCVDVNECATGFHRCGPNSVCVNLVGSYRCECRSGYEFADDQHTCILIAPPPNPCLDGSHTCAPEGQARCIHHGGSSFSCACLPGFIGTGHQCSDVDECAENRCHEAAICYNTPGSFSCRCQPGYRGDGFHCTSDTVPEDSISGLKPCEYQQRYAQTQHAYPGSRIHIPQCDDQGNFVPLQCHGSTGFCWCVDRNGHEVPGTQTPPGSTPPHCGPPPEPTQRPRTVCERWRESLLEHYGGTPRDDQYVPQCDDLGHFIPLQCHGKSDFCWCVDKDGRELQGTRSQPGTRPACIPTVAPPVVRPTPRPDVTPPSVGTFLLYAQGQQIGHLPLNGSRLQKDAARTLLSLHGSIVVGIDYDCRERMVYWTDVAGRTISRASLEAGAEPETIITSGLISPEGLAIDHFRRTMYWTDSGLDKIERAELDGSERKVLFHTDLVNPRAITVDPIRGNLYWTDWNREAPKIETSSLDGENRRILINKDIGLPNGLTFDPFSKLLCWADAGTKKLECTLPDGTGRRVIQNHLNYPFSIVSYADHFYHTDWRRDGVISVNKDSGQFTDEFLPEQRSHLYGITAVYPYCPTGRK
B2 was tested, and the binding [1] was “binds” and the binding [2] was “binds”.
